Results on five substances are retold here after US20070148663A1.

Amino acid sequences for entries named in this document (tags omitted). A change or cut given only in a name is not applied to a line headed by its entry. Chains listed by the source or under a name are the forms on record and can include a tag or linker. Residues count along the entry.
GST-APC-C (amino acids 2167-2843) (P25054, residues 2167-2843): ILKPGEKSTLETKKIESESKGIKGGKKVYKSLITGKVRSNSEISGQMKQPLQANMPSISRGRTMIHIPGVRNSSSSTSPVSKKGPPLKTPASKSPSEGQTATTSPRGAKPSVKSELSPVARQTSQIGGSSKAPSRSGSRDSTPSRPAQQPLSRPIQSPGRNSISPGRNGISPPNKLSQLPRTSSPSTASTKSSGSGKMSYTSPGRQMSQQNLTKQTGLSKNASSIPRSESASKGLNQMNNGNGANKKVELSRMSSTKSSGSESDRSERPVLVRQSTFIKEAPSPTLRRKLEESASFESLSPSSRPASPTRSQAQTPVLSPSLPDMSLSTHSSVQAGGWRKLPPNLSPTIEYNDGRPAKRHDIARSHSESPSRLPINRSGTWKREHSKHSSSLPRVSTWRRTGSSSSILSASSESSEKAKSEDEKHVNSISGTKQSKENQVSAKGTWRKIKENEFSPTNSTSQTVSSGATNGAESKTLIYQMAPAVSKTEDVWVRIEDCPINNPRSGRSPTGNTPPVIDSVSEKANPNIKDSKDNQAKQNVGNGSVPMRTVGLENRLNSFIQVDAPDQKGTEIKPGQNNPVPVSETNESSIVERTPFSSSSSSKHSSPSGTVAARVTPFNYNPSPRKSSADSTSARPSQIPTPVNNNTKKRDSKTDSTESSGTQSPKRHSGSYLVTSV
GST-APC-basic (amino acids 2,167-2,674) (P25054, residues 2167-2674): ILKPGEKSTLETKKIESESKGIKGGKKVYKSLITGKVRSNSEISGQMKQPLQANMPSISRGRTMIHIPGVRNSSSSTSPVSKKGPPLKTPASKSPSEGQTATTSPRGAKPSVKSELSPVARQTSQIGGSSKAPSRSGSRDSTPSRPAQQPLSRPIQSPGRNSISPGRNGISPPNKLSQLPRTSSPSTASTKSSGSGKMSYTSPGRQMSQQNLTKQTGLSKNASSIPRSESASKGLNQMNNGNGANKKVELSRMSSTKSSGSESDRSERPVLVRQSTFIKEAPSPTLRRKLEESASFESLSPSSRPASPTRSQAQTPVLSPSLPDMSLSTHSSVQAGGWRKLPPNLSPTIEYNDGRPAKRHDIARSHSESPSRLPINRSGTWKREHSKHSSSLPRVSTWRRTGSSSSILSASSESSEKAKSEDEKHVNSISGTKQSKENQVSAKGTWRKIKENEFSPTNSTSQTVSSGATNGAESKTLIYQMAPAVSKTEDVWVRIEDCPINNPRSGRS
His-521-1040-mDia2 (purified recombinant protein) (Q9Z207, residues 521-1040): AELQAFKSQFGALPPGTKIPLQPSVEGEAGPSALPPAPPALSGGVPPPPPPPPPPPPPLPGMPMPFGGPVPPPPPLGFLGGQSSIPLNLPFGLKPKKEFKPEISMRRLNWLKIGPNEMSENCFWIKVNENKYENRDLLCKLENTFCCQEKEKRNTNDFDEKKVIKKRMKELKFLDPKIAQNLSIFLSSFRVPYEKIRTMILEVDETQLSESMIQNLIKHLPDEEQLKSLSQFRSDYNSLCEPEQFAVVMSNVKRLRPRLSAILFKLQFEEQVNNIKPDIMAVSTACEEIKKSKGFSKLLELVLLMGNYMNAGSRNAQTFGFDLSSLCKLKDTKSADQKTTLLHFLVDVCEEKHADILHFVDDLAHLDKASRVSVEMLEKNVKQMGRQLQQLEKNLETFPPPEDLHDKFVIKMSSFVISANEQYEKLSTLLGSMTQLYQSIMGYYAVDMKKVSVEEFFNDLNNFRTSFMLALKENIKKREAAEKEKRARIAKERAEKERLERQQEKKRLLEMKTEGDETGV
609-1,040-mDia2, in vitro transcribed and translated, 35S-labelled (Q9Z207, residues 609-1040): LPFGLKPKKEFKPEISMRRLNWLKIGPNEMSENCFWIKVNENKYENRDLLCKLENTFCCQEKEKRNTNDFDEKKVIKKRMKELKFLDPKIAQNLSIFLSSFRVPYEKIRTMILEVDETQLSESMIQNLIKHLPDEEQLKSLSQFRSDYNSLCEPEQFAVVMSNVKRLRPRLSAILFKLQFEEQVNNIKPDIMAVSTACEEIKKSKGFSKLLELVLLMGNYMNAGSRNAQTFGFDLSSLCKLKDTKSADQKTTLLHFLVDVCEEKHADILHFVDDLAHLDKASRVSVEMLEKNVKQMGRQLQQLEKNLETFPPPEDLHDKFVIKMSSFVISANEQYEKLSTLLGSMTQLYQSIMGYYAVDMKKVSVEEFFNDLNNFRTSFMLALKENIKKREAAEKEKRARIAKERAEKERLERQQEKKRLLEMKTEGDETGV
ΔGBDΔDADG(YEKR)-mDia2 (Q9Z207, form named): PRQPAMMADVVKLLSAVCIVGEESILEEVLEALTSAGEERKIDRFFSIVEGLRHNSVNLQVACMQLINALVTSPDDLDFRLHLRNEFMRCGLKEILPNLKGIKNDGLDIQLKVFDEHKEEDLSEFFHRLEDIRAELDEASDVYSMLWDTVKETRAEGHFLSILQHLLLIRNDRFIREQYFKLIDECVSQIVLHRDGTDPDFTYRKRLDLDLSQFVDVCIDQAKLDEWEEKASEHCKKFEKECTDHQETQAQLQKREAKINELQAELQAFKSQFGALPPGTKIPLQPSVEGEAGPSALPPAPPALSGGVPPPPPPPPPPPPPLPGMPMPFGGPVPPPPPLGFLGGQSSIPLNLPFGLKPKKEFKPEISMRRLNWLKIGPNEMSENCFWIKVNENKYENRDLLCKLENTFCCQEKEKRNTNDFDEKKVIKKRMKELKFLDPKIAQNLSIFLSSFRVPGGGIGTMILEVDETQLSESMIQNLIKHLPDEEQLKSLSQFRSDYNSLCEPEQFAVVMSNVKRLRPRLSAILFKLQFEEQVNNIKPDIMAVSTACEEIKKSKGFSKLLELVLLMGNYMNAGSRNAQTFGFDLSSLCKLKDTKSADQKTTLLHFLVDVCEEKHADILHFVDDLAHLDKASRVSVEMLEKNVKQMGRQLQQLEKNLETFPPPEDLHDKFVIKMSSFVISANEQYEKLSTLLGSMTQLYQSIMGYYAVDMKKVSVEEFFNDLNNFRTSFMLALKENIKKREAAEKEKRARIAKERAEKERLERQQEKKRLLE
UniProt O08808: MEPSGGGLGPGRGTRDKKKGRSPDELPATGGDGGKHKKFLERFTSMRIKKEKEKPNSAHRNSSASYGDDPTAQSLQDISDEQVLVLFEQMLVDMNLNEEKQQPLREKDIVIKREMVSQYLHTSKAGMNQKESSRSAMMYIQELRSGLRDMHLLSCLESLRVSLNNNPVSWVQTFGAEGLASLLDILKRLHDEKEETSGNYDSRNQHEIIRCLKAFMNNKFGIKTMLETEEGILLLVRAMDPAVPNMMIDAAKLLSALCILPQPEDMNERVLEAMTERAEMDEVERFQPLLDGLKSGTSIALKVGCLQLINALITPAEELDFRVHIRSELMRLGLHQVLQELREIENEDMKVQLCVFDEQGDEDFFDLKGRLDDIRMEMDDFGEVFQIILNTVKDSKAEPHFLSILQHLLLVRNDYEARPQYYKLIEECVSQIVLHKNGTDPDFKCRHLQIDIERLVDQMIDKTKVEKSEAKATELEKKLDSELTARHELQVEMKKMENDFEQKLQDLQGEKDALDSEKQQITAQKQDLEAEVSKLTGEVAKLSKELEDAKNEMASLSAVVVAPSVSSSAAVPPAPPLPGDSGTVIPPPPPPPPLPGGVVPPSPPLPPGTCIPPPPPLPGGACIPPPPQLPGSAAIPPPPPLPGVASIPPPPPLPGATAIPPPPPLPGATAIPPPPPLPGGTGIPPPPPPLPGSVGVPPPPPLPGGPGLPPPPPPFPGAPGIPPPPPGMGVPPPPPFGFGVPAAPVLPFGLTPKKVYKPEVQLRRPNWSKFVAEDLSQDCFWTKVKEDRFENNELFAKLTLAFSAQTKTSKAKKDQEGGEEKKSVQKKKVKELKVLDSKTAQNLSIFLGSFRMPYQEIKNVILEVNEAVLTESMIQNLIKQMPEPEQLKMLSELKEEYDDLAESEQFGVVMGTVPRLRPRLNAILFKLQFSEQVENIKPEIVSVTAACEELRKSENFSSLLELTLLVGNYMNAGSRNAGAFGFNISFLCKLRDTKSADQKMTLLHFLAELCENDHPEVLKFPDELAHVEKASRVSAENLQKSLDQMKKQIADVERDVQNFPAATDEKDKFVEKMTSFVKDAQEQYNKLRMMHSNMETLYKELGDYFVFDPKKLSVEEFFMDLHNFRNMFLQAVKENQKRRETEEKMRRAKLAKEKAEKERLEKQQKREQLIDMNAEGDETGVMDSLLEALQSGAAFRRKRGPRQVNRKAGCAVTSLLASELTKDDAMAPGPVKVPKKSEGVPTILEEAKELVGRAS

No constants are given. Whether binding was seen depends on the method and setting. In cells and extracts the contact can be indirect. Some binding calls cover weakened binding; strength is not graded here. For part of these data: Tags and fused reporters may be left off the sequences shown.

Assay [1] addresses GST-APC-C (amino acids 2167-2843) (UniProt P25054). The experiment in a line: GST pull-down of 35S-labelled in vitro translated protein, autoradiography.
The target of assay [2] is T1, GST-EB1 (mouse) (UniProt Q61166).
T1 sequence (looked up): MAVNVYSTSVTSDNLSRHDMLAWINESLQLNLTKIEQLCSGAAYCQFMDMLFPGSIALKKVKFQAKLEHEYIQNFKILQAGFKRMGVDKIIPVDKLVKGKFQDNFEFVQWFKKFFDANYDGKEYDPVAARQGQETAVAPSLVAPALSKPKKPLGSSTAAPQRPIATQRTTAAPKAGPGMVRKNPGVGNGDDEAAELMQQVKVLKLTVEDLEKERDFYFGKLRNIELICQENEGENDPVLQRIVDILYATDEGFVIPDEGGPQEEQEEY
The description is as above.

The target of assay [3] is GST-APC-C (amino acids 2167-2843) (UniProt P25054). The experiment in a line: GST pull-down from COS-7 lysates in the presence of DMSO, nocodazole or latrunculin A, anti-Flag western blot. (A western blot detects proteins with antibodies after separation by electrophoresis.)
Assay [4] concerns the target T1, GST-EB1 (mouse). The description is as above.
For assay [5], the target named is GST-APC-C (amino acids 2167-2843) (UniProt P25054). The experiment in a line: direct binding of purified recombinant proteins (0.3 µM each), GST pull-down, anti-His western blot.
In assay [6] the target is T1, GST-EB1 (mouse). Described as above.
For a further assay, the target named is T2, GST-EB1-N (mouse) (UniProt Q61166).
T2 sequence (looked up): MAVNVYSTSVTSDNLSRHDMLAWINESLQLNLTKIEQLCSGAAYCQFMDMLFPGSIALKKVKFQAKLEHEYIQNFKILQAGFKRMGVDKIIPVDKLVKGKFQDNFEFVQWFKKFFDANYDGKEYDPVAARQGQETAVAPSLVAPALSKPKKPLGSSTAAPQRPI
Described as above.

Assay [7] deals with GST-APC-basic (amino acids 2,167-2,674) (UniProt P25054). The description is as above.
Assay [8] addresses T1, GST-EB1 (mouse). The experiment in a line: direct binding of purified recombinant proteins, GST pull-down, anti-His western blot.

Turning to “521-1040-mDia2 fragment, in vitro transcribed and translated, 35S-labelled (from UniProt Q9Z207 521-1040)”, the binding result (in assay [1]; with GST-EB1 (mouse) [2]) was “binds” in each case.
Turning to “609-1,040-mDia2, in vitro transcribed and translated, 35S-labelled (from UniProt Q9Z207 609-1040)”, the binding result (in [1]; in the assay with GST-EB1 (mouse) [2]) was “binds” each time.
Turning to “Flag-mDia1 (full-length mDia1) expressed in COS-7 cells (from UniProt O08808 1-1255)”, the binding entry (in assay [3]; with GST-EB1 (mouse) [4]) was “binds” each time.
Take “His-521-1040-mDia2 (purified recombinant protein) (from UniProt Q9Z207 521-1040)”: the binding result (in assay [5]; with GST-EB1 (mouse) [6]; with GST-EB1-N (mouse); in assay [7]; with GST-EB1 (mouse) [8]) was “binds” each time.
As to “ΔGBDΔDADG(YEKR)-mDia2 (from UniProt Q9Z207 258-1030)”, in [1], the binding result is “binds”.
